For at least one compound, name, drawing or mass did not settle the structure.
Test system: B16 melanoma cells
Assay: Invasion of B16 melanoma cells (Matrigel invasion)
Format: cell-based
Settings: Table 4 / FIG. 7, 10 μg/mL
Procedure: MT70646 (KCTC 0916BP) against the invasion of B16 melanoma cells through the synthetic basal membranes. […]
BioCoat invasion chamber (precoated Matrigel) was swelled for 30 min by serum-free DMEM and the chamber was placed into the well of 24 well plate which contains 600 μL of HT 1080 conditioned medium. And then 450 μL of melanoma cell suspension (4.5×10^3 cells) in DMEM medium containing 0.5% albumin was added into the chamber. After adding 50 μL of test sample, the chamber was incubated for 22–24 hr at 37° C. in a 5% CO2 atmosphere. And the filter of chamber was detached and fixed with methanol. After staining the filter with 5% crystal violet and the cells on the upper surface of the filters were removed by wiping them with a cotton swab. The cells invaded through the Matrigel and filter to the lower surface were counted under a microscope.

Structure (SMILES): CCCCCCCCCCCCCCCc1cc(OC2OC(C(=O)O)C(O)C(O)C2O)cc(O)c1C(=O)Oc1cc(C)c(C(=O)O)c(O)c1 (stereo not shown) [CRM646-A]
- Inhibitory activity against invasion of B16 melanoma cells (in words): relatively lower activity
